Here are results for 2 molecules from paper PMC9975675.

Amino acid sequences for entries named in this document (tags omitted). Residues count along the entry.
UniProt P15941, residues 1098-1255: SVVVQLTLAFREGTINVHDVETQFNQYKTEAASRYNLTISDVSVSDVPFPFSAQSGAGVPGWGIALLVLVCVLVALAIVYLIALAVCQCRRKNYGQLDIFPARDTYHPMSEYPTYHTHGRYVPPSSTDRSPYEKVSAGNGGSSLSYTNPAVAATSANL
UniProt Q86U86: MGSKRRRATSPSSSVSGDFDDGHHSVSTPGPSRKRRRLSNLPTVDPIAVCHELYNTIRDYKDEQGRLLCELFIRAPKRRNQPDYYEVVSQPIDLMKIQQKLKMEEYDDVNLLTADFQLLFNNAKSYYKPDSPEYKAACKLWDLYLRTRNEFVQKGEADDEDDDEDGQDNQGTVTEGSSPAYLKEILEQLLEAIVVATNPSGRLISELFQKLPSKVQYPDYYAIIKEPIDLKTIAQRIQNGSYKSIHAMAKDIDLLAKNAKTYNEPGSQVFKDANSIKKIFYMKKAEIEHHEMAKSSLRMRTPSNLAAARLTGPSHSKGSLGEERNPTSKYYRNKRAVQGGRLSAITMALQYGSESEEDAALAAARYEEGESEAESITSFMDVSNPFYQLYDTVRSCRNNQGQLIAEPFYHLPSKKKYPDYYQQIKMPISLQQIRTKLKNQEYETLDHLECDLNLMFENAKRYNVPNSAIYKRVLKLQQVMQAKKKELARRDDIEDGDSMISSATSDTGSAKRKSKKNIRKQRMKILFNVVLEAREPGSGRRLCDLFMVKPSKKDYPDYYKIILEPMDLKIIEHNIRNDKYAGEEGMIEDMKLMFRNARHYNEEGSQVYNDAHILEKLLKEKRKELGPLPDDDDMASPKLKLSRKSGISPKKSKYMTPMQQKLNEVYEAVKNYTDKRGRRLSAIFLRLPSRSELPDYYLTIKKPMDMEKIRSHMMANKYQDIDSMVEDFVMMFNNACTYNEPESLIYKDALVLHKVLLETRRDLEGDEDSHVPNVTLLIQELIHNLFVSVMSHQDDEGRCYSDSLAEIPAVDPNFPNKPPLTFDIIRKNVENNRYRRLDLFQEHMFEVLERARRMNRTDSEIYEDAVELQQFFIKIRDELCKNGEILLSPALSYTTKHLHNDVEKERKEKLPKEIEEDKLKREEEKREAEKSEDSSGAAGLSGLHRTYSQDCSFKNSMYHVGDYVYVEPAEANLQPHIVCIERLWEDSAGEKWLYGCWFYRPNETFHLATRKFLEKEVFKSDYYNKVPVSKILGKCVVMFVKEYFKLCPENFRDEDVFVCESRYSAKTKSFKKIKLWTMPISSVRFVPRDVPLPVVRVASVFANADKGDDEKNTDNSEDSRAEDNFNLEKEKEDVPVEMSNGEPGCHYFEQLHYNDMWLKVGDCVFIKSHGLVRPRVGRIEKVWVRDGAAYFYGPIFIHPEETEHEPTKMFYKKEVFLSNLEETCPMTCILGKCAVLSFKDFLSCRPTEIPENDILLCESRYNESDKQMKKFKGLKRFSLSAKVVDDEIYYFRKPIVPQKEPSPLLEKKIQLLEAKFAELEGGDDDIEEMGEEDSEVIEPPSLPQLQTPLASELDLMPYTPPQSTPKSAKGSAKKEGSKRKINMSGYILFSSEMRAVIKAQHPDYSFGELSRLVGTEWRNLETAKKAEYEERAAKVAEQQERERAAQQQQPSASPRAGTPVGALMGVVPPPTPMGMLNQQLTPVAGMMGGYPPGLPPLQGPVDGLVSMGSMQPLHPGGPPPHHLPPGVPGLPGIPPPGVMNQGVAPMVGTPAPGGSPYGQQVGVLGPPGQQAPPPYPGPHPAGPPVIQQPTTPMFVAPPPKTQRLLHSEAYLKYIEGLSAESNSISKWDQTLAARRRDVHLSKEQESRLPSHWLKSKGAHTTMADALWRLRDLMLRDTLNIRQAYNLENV

Assay [1] addresses MUC1 transmembrane C-terminal subunit (MUC1-C) (human (endogenous in BT-549)) (UniProt P15941). In words: co-IP; nuclear lysates incubated with anti-MUC1-C (MA5-11202), precipitated with Dynabeads Protein G; control IgG; immunoblot.
Assay [2] has the same target. Described as above. This is another data set of the same source.

Read-outs that look alike come from different tables or passages of the source. Results are given in words; binding and its absence hold for the method and conditions named. Binding seen in cells or lysates may run through a third protein. Some results given as binding are weak or reduced against the parent protein; the word gives no strength.

Regarding “polybromo-1 (PBRM1) (from UniProt Q86U86 1-1689)”, the binding result in assay [1] is reported as “binds”.

B1: IRF1 (endogenous) (protein, UniProt P10914 1-325)
chain: MPITRMRMRPWLEMQINSNQIPGLIWINKEEMIFQIPWKHAAKHGWDINKDACLFRSWAIHTGRYKAGEKEPDPKTWKANFRCAMNSLPDIEEVKDQSRNKGSSAVRVYRMLPPLTKNQRKERKSKSSRDAKSKAKRKSCGDSSPDTFSDGLSSSTLPDDHSSYTVPGYMQDLEVEQALTPALSPCAVSSTLPDWHIPVEVVPDSTSDLYNFQVSPMPSTSEATTDEDEEGKLPEDIMKLLEQSEWQPTNVDGKGYLLNEPGVQPTSVYGDFSCKEEPEIDSPGGDIGLSLQRVFTDLKNMDATWLDSLLTPVRLPSIQAIPCAP
In the case of B1, the binding entry in assay [2] was “binds”.
